Data as given in the supplement of paper PMC4807443.
Where a name gives a salt, the structure may show the parent alone. This is one part of the list. The numbers are fractions of the control, whatever unit the source prints. Most values lie at the level of the controls, where differences are scatter.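 MIN6 is a mouse insulinoma beta-cell line that stably carries a lentiviral reporter in which the Pdx1 and Ins1 promoters each drive a nucleus-targeted fluorescent protein; cells were counted by automated imaging with a Hoechst nuclear stain. In the screen, a drug was a possible hit when its Ins1 promoter readout lay beyond two median absolute deviations from the DMSO controls while Pdx1 activity stayed near normal.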

Each compound was assayed on MIN6 (assay: % Pdx1+ Ins1+ (double-positive, mature) cells relative to DMSO control (fold of DMSO control); higher = more mature Ins1 promoter-active cells). Settings: 8.5 µM; 48 h; glucose 5 mM.

| Compound | % Pdx1+ Ins1+ |
| --- | --- |
| CCC1(c2ccccc2)C(=O)NCNC1=O [Primidone] | 0.924 |
| CN(C)CCC(c1ccc(Br)cc1)c1ccccn1 (configuration not stated) [Brompheniramine maleate] | 0.988 |
| NC(Cn1ccc(=O)c(O)c1)C(=O)O (configuration not stated) [Mimosine] | 0.998 |
| CN(CCCCCCCCCCN(C)C(=O)Oc1cccc([N+](C)(C)C)c1)C(=O)Oc1cccc([N+](C)(C)C)c1 [Demecarium bromide] | 0.987 |
| CC(=O)N(CC(O)CO)c1c(I)c(C(=O)NCC(O)CO)c(I)c(C(=O)NCC(O)CO)c1I (configuration not stated) [Iohexol] | 0.969 |
| COC(=O)Nc1nc2cc(Sc3ccccc3)ccc2[nH]1 [Fenbendazole] | 1.05 |
| CN1CCN(CC(=O)N2c3ccccc3C(=O)Nc3cccnc32)CC1 [Pirenzepine dihydrochloride] | 1.05 |
| CCOC1O[C@H]([C@@H](COCc2ccccc2)OCc2ccccc2)[C@H](OCc2ccccc2)[C@H]1O (some centres not stated) [Tribenoside] | 0.982 |
| CC(=O)c1cc2ccccc2oc1=O [3-Acetylcoumarin] | 1 |
| CC(=O)Nc1c(I)c(C(=O)N[C@H]2C(O)O[C@H](CO)[C@@H](O)[C@@H]2O)c(I)c(N(C)C(C)=O)c1I (some centres not stated) [Metrizamide] | 0.943 |
| CCN(CC)CCNC(=O)c1ccc(N)cc1 [Procainamide hydrochloride] | 0.959 |
| CN[C@H]1CC[C@@H](c2ccc(Cl)c(Cl)c2)c2ccccc21 [Sertraline] | 0.875 |
| C[C@@H]1CCC[C@H](C)N1NC(=O)c1ccc(Cl)c(S(N)(=O)=O)c1 [Clopamide] | 1.12 |
| CC(C)[N+]1(C)[C@@H]2CC[C@H]1C[C@@H](OC(=O)C(CO)c1ccccc1)C2 (some centres not stated) [Ipratropium bromide] | 0.984 |
| CC(CNC1CCCCC1)OC(=O)c1ccccc1 (configuration not stated) [Hexylcaine hydrochloride] | 0.887 |
| Nc1ccc(S(=O)(=O)Nc2nccs2)cc1 [Sulfathiazole] | 1.12 |
| CO/N=C(\C(=O)N[C@@H]1C(=O)N2C(C(=O)O)=C(COC(C)=O)CS[C@H]12)c1csc(N)n1 [Cefotaxime sodium salt] | 0.992 |
| O=C(O)[C@@H]1[C@H]2C[C@H]3c4[nH]c5ccccc5c4CCN3C[C@@H]2CC[C@@H]1O [Yohimbinic acid monohydrate] | 0.934 |
| COc1cc(CNC(=O)CCCC/C=C/C(C)C)ccc1O [Capsaicin] | 0.855 |
| CCCCOc1cc(C(=O)OCCN(CC)CC)ccc1N [Benoxinate hydrochloride] | 0.973 |
| Cc1cc2cc3c(C)cc(=O)oc3c(C)c2o1 [Trioxsalen] | 1.01 |
| CC(=O)Nc1nnc(S(N)(=O)=O)s1 [Acetazolamide] | 1.1 |

2 entries drawn at random from the list so far, as already listed:

| Compound | % Pdx1+ Ins1+ |
| --- | --- |
| CC(=O)c1cc2ccccc2oc1=O [3-Acetylcoumarin] | 1 |
| CN(C)CCC(c1ccc(Br)cc1)c1ccccn1 (configuration not stated) [Brompheniramine maleate] | 0.988 |
